Laboratory results reported in PubChem BioAssay (EPA / NIEHS).
Inconclusive results, whose numbers are uncertain, are shown with a selection of clear calls. Potencies of inconclusive entries are doubtful fits and often do not repeat. Active and inactive are the calls of the source. How the source made its calls: active means hit-call score of the fitted dose curve at least 0.9, where 1 is the maximum; inconclusive means response in the unintended direction; inactive means score below 0.9.

Sequences of proteins named here, by UniProt entry; tags and fusion partners are left off. A change or cut given only in a name is not applied to a line headed by its entry.
UniProt P51449: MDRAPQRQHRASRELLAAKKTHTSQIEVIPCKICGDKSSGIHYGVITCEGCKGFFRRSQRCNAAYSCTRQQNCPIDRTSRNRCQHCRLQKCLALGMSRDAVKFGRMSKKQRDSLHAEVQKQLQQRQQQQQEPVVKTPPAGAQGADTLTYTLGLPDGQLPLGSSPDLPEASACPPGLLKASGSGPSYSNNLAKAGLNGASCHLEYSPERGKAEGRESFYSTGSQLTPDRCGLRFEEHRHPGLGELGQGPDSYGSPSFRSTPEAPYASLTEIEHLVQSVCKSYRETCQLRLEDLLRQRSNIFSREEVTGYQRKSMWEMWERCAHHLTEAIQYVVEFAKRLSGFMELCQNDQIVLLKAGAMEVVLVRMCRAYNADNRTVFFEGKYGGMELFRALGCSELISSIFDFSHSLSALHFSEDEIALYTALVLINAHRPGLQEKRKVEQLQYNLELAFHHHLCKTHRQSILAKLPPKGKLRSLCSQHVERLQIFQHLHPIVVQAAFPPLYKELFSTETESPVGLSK
UniProt P19793: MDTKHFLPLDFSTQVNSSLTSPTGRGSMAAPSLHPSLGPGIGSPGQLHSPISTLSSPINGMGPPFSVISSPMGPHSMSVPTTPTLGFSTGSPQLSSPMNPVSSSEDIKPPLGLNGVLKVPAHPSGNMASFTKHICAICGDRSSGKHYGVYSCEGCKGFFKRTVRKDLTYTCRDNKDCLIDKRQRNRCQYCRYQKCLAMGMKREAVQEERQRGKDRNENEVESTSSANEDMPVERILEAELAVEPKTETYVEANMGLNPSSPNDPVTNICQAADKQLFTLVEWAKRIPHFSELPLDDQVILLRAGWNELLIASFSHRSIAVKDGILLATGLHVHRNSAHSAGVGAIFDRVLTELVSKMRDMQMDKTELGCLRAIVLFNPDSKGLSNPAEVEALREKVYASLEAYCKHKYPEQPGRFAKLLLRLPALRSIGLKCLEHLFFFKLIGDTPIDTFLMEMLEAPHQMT

Each molecule was assayed against human RAR-related Orphan Receptor gamma (RORg), RORC (gene 6097) (UniProt P51449) (assay: ATG_RORg_TRANS: Attagene TRANS-FACTORIAL HepG2 Assay for human RAR-related Orphan Receptor gamma (RORg) (AID 2283011);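 on AC50: potency for induction of reporter transcripts above DMSO so activators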).
Procedure, shortened: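 Reporter transcripts from a transfected RORg-GAL4 chimera in HepG2 cells were quantified 24 h after dosing by RT-PCR, 6-FAM labelling, HpaI digestion and capillary electrophoresis; increases over DMSO baseline were fitted.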
For Cc1ccc(C(=O)c2cc(O)c(O)c([N+](=O)[O-])c2)cc1, the AC50 was inconclusive: 100 µM.
N#Cc1nc(Cl)c(Cl)c(Cl)c1Cl was tested, and the AC50 was active: 2.56 µM.
CC=CC(F)(F)C(F)(F)C(F)(F)F was tested, and the AC50 was inconclusive: 150 µM.
O=S(=O)(Oc1ccc(Cl)cc1Cl)c1ccccc1 was tested, and the AC50 was inconclusive: 9.63 µM.
With CC(C)OC(=O)COc1ccc(Cl)cc1Cl the AC50 was inconclusive: 15.9 µM.
Nc1cc([N+](=O)[O-])ccc1Cl was tested, and the outcome was “inactive”.
With CCC1CCCCC1 the AC50 was inconclusive: 100 µM.
In the case of NC(=O)c1ccc([N+](=O)[O-])cc1Cl, the AC50 is reported as inconclusive: 100 µM.
In the case of COc1ccc(N)c([N+](=O)[O-])c1, the AC50 is reported as inconclusive: 39.9 µM.
With COc1cc(-c2nc(NC(=O)c3cc4cc(C)cc(C)c4n3CC(=O)O)sc2CCC2CCCCC2)c(OC)cc1Cl the AC50 was inconclusive: 100 µM.
With CC(CCl)OP(=O)(OC(C)CCl)OC(C)CCl (configuration not stated) the AC50 was inconclusive: 95 µM.
CC(C)(Oc1ccc(Cl)cc1)C(=O)O was tested, and the AC50 was inconclusive: 0.0823 µM.
With O=C(O)c1cc(O)c2ccccc2c1O the AC50 was inconclusive: 33.4 µM.
In the case of COC(=O)c1c(Cl)nn(C)c1S(=O)(=O)NC(=O)Nc1nc(OC)cc(OC)n1, the AC50 is reported as inconclusive: 16.2 µM.
In the case of COc1c2ccoc2cc2oc(=O)ccc12, the outcome is reported as “inactive”.
In the case of COc1cc(OC)c2ccc(=O)oc2c1, the AC50 is reported as inconclusive: 184 µM.

Each molecule was assayed against Retinoic acid receptor RXR-alpha (Homo sapiens) (UniProt P19793) (assay: ATG_RXRa_TRANS: Attagene TRANS-FACTORIAL HepG2 Assay for human Retinoid X Receptor alpha (RXRa) (AID 2283012)).
Procedure, shortened: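 HepG2 cells transiently transfected with multiplexed GAL4-UAS reporter units and chimeric NR-GAL4 fusions, dosed 24 h. Reporter mRNA measured by RT-PCR, FAM labelling, HpaI digestion and capillary electrophoresis; gain-of-signal fitted relative to DMSO baseline.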
With Cc1ccc(C(=O)c2cc(O)c(O)c([N+](=O)[O-])c2)cc1 the outcome was “inactive”.
For C=CC(=O)O[C@H]1C[C@@H]2CC[C@@]1(C)C2(C)C, the outcome was “inactive”.
C=Cc1ccc(OC(C)=O)cc1 was tested, and the outcome was “inactive”.
With NC(=O)c1ccc([N+](=O)[O-])cc1Cl the AC50 was inconclusive: 100 µM.
For COc1cc(-c2nc(NC(=O)c3cc4cc(C)cc(C)c4n3CC(=O)O)sc2CCC2CCCCC2)c(OC)cc1Cl, the AC50 was inconclusive: 0.00332 µM.
With COC(=O)c1c(Cl)nn(C)c1S(=O)(=O)NC(=O)Nc1nc(OC)cc(OC)n1 the AC50 was inconclusive: 3.78 µM.
O=S(=O)(O)CCCN1CCOCC1 was tested, and the outcome was “inactive”.
In the case of CS(=O)(=O)c1ccc(Cl)cc1, the AC50 is reported as inconclusive: 179 µM.
With CC(C)(C)C1CCC(O)CC1 (configuration not stated) the outcome was “inactive”.
O=S(=O)(O)NC1CCCCC1 was tested, and the AC50 was inconclusive: 24.3 µM.
With O=C1CCCC=CCCCCCCCCCC1 the AC50 was active: 24.4 µM.
